This experiment has as its target T1, Calcium/calmodulin-dependent protein kinase IV (CaMK4), human (human (endogenous in HaCaT)) (UniProt Q16566).
T1 sequence: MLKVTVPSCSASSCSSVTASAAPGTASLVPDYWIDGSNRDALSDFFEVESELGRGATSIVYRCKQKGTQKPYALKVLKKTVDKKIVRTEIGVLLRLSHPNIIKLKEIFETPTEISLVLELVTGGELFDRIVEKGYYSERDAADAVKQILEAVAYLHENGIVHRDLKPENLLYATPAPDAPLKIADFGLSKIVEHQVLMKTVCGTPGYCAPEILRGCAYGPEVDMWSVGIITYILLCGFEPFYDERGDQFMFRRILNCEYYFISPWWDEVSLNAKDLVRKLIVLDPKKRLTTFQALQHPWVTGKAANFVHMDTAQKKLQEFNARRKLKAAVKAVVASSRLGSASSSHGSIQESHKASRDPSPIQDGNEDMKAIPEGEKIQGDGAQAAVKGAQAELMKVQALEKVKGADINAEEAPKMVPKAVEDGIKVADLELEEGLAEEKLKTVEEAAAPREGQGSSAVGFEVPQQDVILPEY
Put plainly: co-IP; HaCaT cell lysates incubated with CaMK4 Ab or rabbit IgG overnight at 4 °C, Protein A/G magnetic beads, western blot with AKT Ab; cells transfected with siCAMK4 or scrambled control and stimulated with TNF and IL-17A (Fig. 8 legend). On the technique in general: In western blotting, separated proteins are transferred to a membrane and probed.

These are yes or no findings as the source states them, for the method shown. Binding seen in cells or lysates may run through a third protein. Binding can be weak; no strength is given.

Regarding AKT, human (enzyme), the binding result is “binds”.

(Values after paper PMC9307837.)
